{"sequences": {"note": "Sequences of proteins named here, by UniProt entry; tags and fusion partners are left off.", "UniProt P33302, whole entry V1372A": "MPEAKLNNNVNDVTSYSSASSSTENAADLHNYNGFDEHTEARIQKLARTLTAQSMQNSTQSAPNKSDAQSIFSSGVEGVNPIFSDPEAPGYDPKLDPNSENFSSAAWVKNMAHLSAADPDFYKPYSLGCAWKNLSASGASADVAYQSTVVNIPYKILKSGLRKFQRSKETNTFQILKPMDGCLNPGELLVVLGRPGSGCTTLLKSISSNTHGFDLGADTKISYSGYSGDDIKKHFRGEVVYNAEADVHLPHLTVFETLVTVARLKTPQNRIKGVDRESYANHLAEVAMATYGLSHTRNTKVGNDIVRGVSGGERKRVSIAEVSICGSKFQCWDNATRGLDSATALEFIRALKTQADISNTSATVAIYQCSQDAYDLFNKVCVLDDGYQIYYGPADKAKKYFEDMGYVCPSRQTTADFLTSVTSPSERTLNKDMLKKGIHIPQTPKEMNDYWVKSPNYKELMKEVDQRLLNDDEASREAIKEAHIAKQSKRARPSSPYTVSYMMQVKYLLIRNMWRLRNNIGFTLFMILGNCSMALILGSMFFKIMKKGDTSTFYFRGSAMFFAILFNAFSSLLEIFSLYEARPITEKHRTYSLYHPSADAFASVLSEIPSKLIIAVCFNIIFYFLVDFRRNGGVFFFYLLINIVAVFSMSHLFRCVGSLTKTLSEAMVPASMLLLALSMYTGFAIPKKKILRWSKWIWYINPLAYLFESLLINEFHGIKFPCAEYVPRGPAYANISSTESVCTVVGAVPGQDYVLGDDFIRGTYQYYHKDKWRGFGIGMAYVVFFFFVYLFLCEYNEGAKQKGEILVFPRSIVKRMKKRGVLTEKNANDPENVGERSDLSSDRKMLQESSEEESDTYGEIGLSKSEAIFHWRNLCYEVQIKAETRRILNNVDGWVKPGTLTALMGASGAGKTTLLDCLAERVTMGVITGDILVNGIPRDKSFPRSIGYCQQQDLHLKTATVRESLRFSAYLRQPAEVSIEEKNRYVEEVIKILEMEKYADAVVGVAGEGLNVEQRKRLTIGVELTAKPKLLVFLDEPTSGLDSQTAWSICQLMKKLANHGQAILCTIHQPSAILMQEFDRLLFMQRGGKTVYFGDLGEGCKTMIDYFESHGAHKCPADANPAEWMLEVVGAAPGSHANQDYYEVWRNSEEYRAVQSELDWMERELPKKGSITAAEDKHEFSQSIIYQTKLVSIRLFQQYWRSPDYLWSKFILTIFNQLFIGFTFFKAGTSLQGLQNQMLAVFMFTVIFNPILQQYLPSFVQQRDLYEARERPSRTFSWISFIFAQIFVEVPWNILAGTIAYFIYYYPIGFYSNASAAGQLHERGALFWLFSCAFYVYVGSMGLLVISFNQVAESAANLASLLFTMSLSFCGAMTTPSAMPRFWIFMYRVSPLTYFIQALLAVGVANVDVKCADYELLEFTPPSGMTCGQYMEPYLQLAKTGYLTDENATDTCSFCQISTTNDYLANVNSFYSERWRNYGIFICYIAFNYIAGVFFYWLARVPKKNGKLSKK", "UniProt P33302, whole entry I685A": "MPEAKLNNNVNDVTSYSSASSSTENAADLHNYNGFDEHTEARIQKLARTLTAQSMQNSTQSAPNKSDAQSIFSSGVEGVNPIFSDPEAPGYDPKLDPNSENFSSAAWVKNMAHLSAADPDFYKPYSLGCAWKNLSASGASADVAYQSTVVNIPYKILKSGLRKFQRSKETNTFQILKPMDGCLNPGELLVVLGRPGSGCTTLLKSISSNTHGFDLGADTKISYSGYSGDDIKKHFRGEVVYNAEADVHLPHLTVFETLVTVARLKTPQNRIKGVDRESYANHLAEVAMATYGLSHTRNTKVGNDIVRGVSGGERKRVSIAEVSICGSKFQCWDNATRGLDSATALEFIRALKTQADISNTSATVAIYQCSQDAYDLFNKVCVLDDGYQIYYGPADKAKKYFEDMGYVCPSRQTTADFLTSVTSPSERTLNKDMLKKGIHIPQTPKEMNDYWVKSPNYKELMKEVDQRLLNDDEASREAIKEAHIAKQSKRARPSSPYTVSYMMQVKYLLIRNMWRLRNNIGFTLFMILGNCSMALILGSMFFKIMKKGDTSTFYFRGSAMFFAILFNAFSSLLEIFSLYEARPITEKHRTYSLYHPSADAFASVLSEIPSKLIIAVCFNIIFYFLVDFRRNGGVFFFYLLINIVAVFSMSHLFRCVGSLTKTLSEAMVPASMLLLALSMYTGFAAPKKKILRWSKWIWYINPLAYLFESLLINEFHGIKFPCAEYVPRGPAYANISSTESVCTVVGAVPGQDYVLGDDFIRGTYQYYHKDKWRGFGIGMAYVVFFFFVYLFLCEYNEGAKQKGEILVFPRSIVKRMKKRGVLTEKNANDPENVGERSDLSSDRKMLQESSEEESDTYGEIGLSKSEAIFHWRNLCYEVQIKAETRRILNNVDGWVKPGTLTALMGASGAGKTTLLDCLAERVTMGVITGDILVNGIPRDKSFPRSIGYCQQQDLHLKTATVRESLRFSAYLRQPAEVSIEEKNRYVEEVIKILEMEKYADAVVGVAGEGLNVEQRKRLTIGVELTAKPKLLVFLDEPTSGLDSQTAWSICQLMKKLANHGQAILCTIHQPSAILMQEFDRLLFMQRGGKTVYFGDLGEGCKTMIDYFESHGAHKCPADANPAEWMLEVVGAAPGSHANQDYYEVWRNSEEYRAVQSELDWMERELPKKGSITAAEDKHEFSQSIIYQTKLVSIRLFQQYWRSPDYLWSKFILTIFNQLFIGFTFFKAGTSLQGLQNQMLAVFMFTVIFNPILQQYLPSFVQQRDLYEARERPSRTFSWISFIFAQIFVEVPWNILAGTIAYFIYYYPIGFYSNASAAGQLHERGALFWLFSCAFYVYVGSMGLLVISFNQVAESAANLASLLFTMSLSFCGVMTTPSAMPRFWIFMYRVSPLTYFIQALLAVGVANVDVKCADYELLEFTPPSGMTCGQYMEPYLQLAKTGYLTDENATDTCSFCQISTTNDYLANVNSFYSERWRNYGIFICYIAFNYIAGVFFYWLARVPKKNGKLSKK"}, "source": "paper PMC9723933", "about": "(The Journal of Biological Chemistry, 2022)", "key": {"Pdr5 WT": {"biological_target": "Pdr5 WT (Saccharomyces cerevisiae, UniProt P33302)", "assay": "Inhibition of Pdr5 ATPase activity in purified PM vesicles", "format": "biochemical, yeast"}, "Pdr5 V1372A": {"biological_target": "Pdr5 V1372A (Saccharomyces cerevisiae, UniProt P33302, V1372A)", "assay": "biochemical", "set-up": "species or system yeast"}, "Pdr5 I685A": {"biological_target": "Pdr5 I685A (Saccharomyces cerevisiae, UniProt P33302, I685A)", "assay": "biochemical", "set-up": "species or system yeast"}}}
{"molecule": "Clc1ccccc1C(c1ccccc1)(c1ccccc1)n1ccnc1", "note": "[clotrimazole]", "values": [{"measurement": "IC50", "setting": "Pdr5 WT", "value": 1.17, "unit": "µM"}, {"measurement": "IC50", "setting": "Pdr5 V1372A", "value": 1.96, "unit": "µM"}, {"measurement": "IC50", "setting": "Pdr5 I685A", "value": 1.78, "unit": "µM"}]}
